PMC7648144
Results are given in words; binding and its absence hold for the method and conditions named. Some results given as binding are weak or reduced against the parent protein; the word gives no strength. Tags and fused reporters may be left off the sequences shown.

Sequences of proteins named here, by UniProt entry; tags and fusion partners are left off.
UniProt P06136: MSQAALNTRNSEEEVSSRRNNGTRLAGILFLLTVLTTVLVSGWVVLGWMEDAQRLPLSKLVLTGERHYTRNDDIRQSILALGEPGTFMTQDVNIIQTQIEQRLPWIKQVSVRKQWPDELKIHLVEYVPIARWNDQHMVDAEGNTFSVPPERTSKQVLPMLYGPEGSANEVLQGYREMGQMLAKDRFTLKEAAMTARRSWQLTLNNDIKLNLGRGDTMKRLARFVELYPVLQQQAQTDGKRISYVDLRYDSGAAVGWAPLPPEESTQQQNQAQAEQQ

T1: DrpB-T18 (DrpB, division ring protein B, formerly YedR, fused to the T18 fragment of Bordetella pertussis adenylate cyclase) (Escherichia coli) (UniProt P76334)
T1 sequence: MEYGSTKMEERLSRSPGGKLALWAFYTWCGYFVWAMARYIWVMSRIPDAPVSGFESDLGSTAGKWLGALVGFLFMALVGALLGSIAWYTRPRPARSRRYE


Assays:
[1] = biological target: T1, DrpB-T18 (DrpB, division ring protein B, formerly YedR, fused to the T18 fragment of Bordetella pertussis adenylate cyclase) (Escherichia coli); assay: two-hybrid; BACTH in E. coli DHM1, assayed visually by spotting onto minimal medium plates containing Amp, Kan, IPTG and X-gal
[2] = biological target: T1, DrpB-T18 (DrpB, division ring protein B, formerly YedR, fused to the T18 fragment of Bordetella pertussis adenylate cyclase) (Escherichia coli); assay: two-hybrid; bacterial adenylate cyclase two-hybrid (BACTH) in E. coli DHM1; DrpB-T18 (pUT18 derivative) with T25 fusions (pKT25, YmgF* in pKNT25); quantitative beta-galactosidase assay of cultures in LB Amp Kan with 40 uM IPTG, 30 C, 16 h; qualitatively similar when IPTG was omitted

Row | binding [1] | binding [2] | Molecule
1 | binds | binds | T25 fusion to FtsQ (from UniProt P06136 1-276)
2 | binds | binds | T25 fusion to FtsN (protein, UniProt P29131 1-319) MAQRDYVRRSQPAPSRRKKSTSRKKQRNLPAVSPAMVAIAAAVLVTFIGGLYFITHHKKEESETLQSQKVTGNGLPPKPEERWRYIKELESRQPGVRAPTEPSAGGEVKTPEQLTPEQRQLLEQMQADMRQQPTQLVEVPWNEQTPEQRQQTLQRQRQAQQLAEQQRLAQQSRTTEQSWQQQTRTSQAAPVQAQPRQSKPASSQQPYQDLLQTPAHTTAQSKPQQAAPVARAADAPKPTAEKKDERRWMVQCGSFRGAEQAETVRAQLAFEGFDSKITTNNGWNRVVIGPVKGKENADSTLNRLKMAGHTNCIRLAAGG
3 | binds weakly | binds weakly | T25 fusion to FtsA (protein, UniProt P0ABH0 1-420) MIKATDRKLVVGLEIGTAKVAALVGEVLPDGMVNIIGVGSCPSRGMDKGGVNDLESVVKCVQRAIDQAELMADCQISSVYLALSGKHISCQNEIGMVPISEEEVTQEDVENVVHTAKSVRVRDEHRVLHVIPQEYAIDYQEGIKNPVGLSGVRMQAKVHLITCHNDMAKNIVKAVERCGLKVDQLIFAGLASSYSVLTEDERELGVCVVDIGGGTMDIAVYTGGALRHTKVIPYAGNVVTSDIAYAFGTPPSDAEAIKVRHGCALGSIVGKDESVEVPSVGGRPPRSLQRQTLAEVIEPRYTELLNLVNEEILQLQEKLRQQGVKHHLAAGIVLTGGAAQIEGLAACAQRVFHTQVRIGAPLNITGLTDYAQEPYYSTAVGLLHYGKESHLNGEAEVEKRVTASVGSWIKRLNSWLRKEF
4 | binds weakly | binds weakly | T25 fusion to DedD (protein, UniProt P09549 1-220) MASKFQNRLVGTIVLVALGVIVLPGLLDGQKKHYQDEFAAIPLVPKAGDRDEPDMMPAATQALPTQPPEGAAEEVRAGDAAAPSLDPATIAANNTEFEPEPAPVAPPKPKPVEPPKPKVEAPPAPKPEPKPVVEEKAAPTGKAYVVQLGALKNADKVNEIVGKLRGAGYRVYTSPSTPVQGKITRILVGPDASKDKLKGSLGELKQLSGLSGVVMGYTPN
5 | binds | binds | T25 fusion to FtsI (protein, UniProt P0AD68 1-588) MKAAAKTQKPKRQEEHANFISWRFALLCGCILLALAFLLGRVAWLQVISPDMLVKEGDMRSLRVQQVSTSRGMITDRSGRPLAVSVPVKAIWADPKEVHDAGGISVGDRWKALANALNIPLDQLSARINANPKGRFIYLARQVNPDMADYIKKLKLPGIHLREESRRYYPSGEVTAHLIGFTNVDSQGIEGVEKSFDKWLTGQPGERIVRKDRYGRVIEDISSTDSQAAHNLALSIDERLQALVYRELNNAVAFNKAESGSAVLVDVNTGEVLAMANSPSYNPNNLSGTPKEAMRNRTITDVFEPGSTVKPMVVMTALQRGVVRENSVLNTIPYRINGHEIKDVARYSELTLTGVLQKSSNVGVSKLALAMPSSALVDTYSRFGLGKATNLGLVGERSGLYPQKQRWSDIERATFSFGYGLMVTPLQLARVYATIGSYGIYRPLSITKVDPPVPGERVFPESIVRTVVHMMESVALPGGGGVKAAIKGYRIAIKTGTAKKVGPDGRYINKYIAYTAGVAPASQPRFALVVVINDPQAGKYYGGAVSAPVFGAIMGGVLRTMNIEPDALTTGDKNEFVINQGEGTGGRS
6 | binds | binds | T25 fusion to DamX (protein, UniProt P11557 1-428) MDEFKPEDELKPDPSDRRTGRSRQSSERSERTERGEPQINFDDIELDDTDDRRPTRAQKERNEEPEIEEEIDESEDETVDEERVERRPRKRKKAASKPASRQYMMMGVGILVLLLLIIGIGSALKAPSTTSSDQTASGEKSIDLAGNATDQANGVQPAPGTTSAENTQQDVSLPPISSTPTQGQTPVATDGQQRVEVQGDLNNALTQPQNQQQLNNVAVNSTLPTEPATVAPVRNGNASRDTAKTQTAERPSTTRPARQQAVIEPKKPQATVKTEPKPVAQTPKRTEPAAPVASTKAPAATSTPAPKETATTAPVQTASPAQTTATPAAGAKTAGNVGSLKSAPSSHYTLQLSSSSNYDNLNGWAKKENLKNYVVYETTRNGQPWYVLVSGVYASKEEAKKAVSTLPADVQAKNPWAKPLRQVQADLK
